Data source: PubChem BioAssay AID504764 (Drosophila RNAi Screening Center, 2011)
Assay: 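Genome-wide screen for regulators of Notch-driven gene expression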 (primary screen). Cells: Drosophila Kc167 cells. Reagent: long dsRNA against Drosophila genes. Time to read-out: about 5 days (4 days dsRNA, then 24 h after transfection). Challenge: transfection of constitutively active membrane-tethered Notch lacking the extracellular domain, read 24 h later. Measured: 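Light from a Notch-responsive E(spl)m3 luciferase reporter under active Notch, with control-promoter and no-Notch reporter wells to normalise; raw counts from paired wells a and b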. Scale: induced reporter light, run 1, well a and induced reporter light, run 1, well b: higher = more light from the Notch target reporter with active Notch; control promoter light, run 1, well a and control promoter light, run 1, well b: higher = more light from the viral control promoter (cell number, transfection, viability); uninduced reporter light, run 1, well a: higher = more light from the Notch target reporter without active Notch. Active means: 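Wells with low control signal or poorly matching duplicates excluded; duplicates averaged; per source plate, z beyond ±2 for induced/control log2 ratio or beyond ±1.8 for induced/uninduced marks a hit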. Meaning of the calls: active = modifier hit (raised or lowered Notch signal); inactive = not a hit.
The screen tested about 22,000 reagents; shown is an unselected part of those that have a named target and a result. In the full data, 403 (1.9%) were called active. 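Unnormalised raw counts per well; ratio z-scores behind the hit calls and whether each hit raises or lowers signal are not deposited.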 Unmarked entries are inactive. A plus sign joins genes that one reagent is predicted to hit. The record does not give: the amount of reagent.

LManVI (Lysosomal alpha-mannosidase VI) [DRSC03224]
- induced reporter light, run 1, well a: 91465
- induced reporter light, run 1, well b: 1.02e5
- control promoter light, run 1, well a: 64445
- control promoter light, run 1, well b: 83340
- uninduced reporter light, run 1, well a: 16042

brun (brunelleschi) [DRSC02706]
- induced reporter light, run 1, well a: 1.53e5
- induced reporter light, run 1, well b: 1.81e5
- control promoter light, run 1, well a: 1.59e5
- control promoter light, run 1, well b: 1.62e5
- uninduced reporter light, run 1, well a: 10735

CG10208 [DRSC14211]
- induced reporter light, run 1, well a: 1.74e5
- induced reporter light, run 1, well b: 1.73e5
- control promoter light, run 1, well a: 2.01e5
- control promoter light, run 1, well b: 2.07e5
- uninduced reporter light, run 1, well a: 15190

CG8366 [DRSC07153]
- induced reporter light, run 1, well a: 1.02e5
- induced reporter light, run 1, well b: 1.08e5
- control promoter light, run 1, well a: 1.13e5
- control promoter light, run 1, well b: 1.52e5
- uninduced reporter light, run 1, well a: 9945

CG3225 [DRSC00578]
- induced reporter light, run 1, well a: 1.82e5
- induced reporter light, run 1, well b: 1.83e5
- control promoter light, run 1, well a: 1.71e5
- control promoter light, run 1, well b: 2.00e5
- uninduced reporter light, run 1, well a: 17145

Gr23a (Gustatory receptor 23a) [DRSC00410]
- induced reporter light, run 1, well a: 1.01e5
- induced reporter light, run 1, well b: 82590
- control promoter light, run 1, well a: 96170
- control promoter light, run 1, well b: 63555
- uninduced reporter light, run 1, well a: 7210

CG12481 [DRSC19461]
- induced reporter light, run 1, well a: 84505
- induced reporter light, run 1, well b: 74345
- control promoter light, run 1, well a: 99890
- control promoter light, run 1, well b: 86275
- uninduced reporter light, run 1, well a: 13375

CG30046 [DRSC06691]
- induced reporter light, run 1, well a: 86350
- induced reporter light, run 1, well b: 84970
- control promoter light, run 1, well a: 1.12e5
- control promoter light, run 1, well b: 1.19e5
- uninduced reporter light, run 1, well a: 8130

CG12825 [DRSC06174]
- induced reporter light, run 1, well a: 1.82e5
- induced reporter light, run 1, well b: 2.40e5
- control promoter light, run 1, well a: 3.05e5
- control promoter light, run 1, well b: 2.69e5
- uninduced reporter light, run 1, well a: 20265

CG14445 [DRSC17938]
- induced reporter light, run 1, well a: 1.38e5
- induced reporter light, run 1, well b: 1.40e5
- control promoter light, run 1, well a: 2.18e5
- control promoter light, run 1, well b: 2.28e5
- uninduced reporter light, run 1, well a: 11040

CG11293 (retired record) [DRSC04098]
- induced reporter light, run 1, well a: 2.16e5
- induced reporter light, run 1, well b: 1.76e5
- control promoter light, run 1, well a: 2.05e5
- control promoter light, run 1, well b: 1.91e5
- uninduced reporter light, run 1, well a: 15150

obst-I (obstructor-I) [DRSC08339]
- induced reporter light, run 1, well a: 76655
- induced reporter light, run 1, well b: 71945
- control promoter light, run 1, well a: 1.21e5
- control promoter light, run 1, well b: 1.75e5
- uninduced reporter light, run 1, well a: 5870

Ppt2 (Palmitoyl-protein Thioesterase 2) [DRSC02786]
- induced reporter light, run 1, well a: 2.06e5
- induced reporter light, run 1, well b: 2.36e5
- control promoter light, run 1, well a: 1.94e5
- control promoter light, run 1, well b: 2.15e5
- uninduced reporter light, run 1, well a: 15842

apolpp (apolipophorin) [DRSC17216]
- induced reporter light, run 1, well a: 1.62e5
- induced reporter light, run 1, well b: 1.74e5
- control promoter light, run 1, well a: 2.19e5
- control promoter light, run 1, well b: 2.22e5
- uninduced reporter light, run 1, well a: 13260

CG33964 + CG13175 [DRSC06300]
- induced reporter light, run 1, well a: 91415
- induced reporter light, run 1, well b: 1.23e5
- control promoter light, run 1, well a: 1.41e5
- control promoter light, run 1, well b: 1.30e5
- uninduced reporter light, run 1, well a: 10370

CG33964 + CG13175 [DRSC06301]
- induced reporter light, run 1, well a: 90550
- induced reporter light, run 1, well b: 75865
- control promoter light, run 1, well a: 1.09e5
- control promoter light, run 1, well b: 1.02e5
- uninduced reporter light, run 1, well a: 8730

CG33964 + CG13175 [DRSC07184]
- induced reporter light, run 1, well a: 96990
- induced reporter light, run 1, well b: 93860
- control promoter light, run 1, well a: 1.14e5
- control promoter light, run 1, well b: 1.02e5
- uninduced reporter light, run 1, well a: 8188

CG11843 [DRSC14401]
- induced reporter light, run 1, well a: 1.54e5
- induced reporter light, run 1, well b: 1.47e5
- control promoter light, run 1, well a: 2.20e5
- control promoter light, run 1, well b: 2.19e5
- uninduced reporter light, run 1, well a: 12850

CG10469 [DRSC09729]
- induced reporter light, run 1, well a: 2.04e5
- induced reporter light, run 1, well b: 1.85e5
- control promoter light, run 1, well a: 1.93e5
- control promoter light, run 1, well b: 2.28e5
- uninduced reporter light, run 1, well a: 9850

CanB2 (Calcineurin B2) [DRSC07355]
- induced reporter light, run 1, well a: 1.64e5
- induced reporter light, run 1, well b: 2.01e5
- control promoter light, run 1, well a: 2.64e5
- control promoter light, run 1, well b: 3.00e5
- uninduced reporter light, run 1, well a: 14620

Bgb [DRSC08148]
- induced reporter light, run 1, well a: 1.07e5
- induced reporter light, run 1, well b: 1.26e5
- control promoter light, run 1, well a: 2.22e5
- control promoter light, run 1, well b: 1.96e5
- uninduced reporter light, run 1, well a: 8428

Pur-alpha (Purine-rich binding protein-alpha) [DRSC17166]
- induced reporter light, run 1, well a: 1.68e5
- induced reporter light, run 1, well b: 1.64e5
- control promoter light, run 1, well a: 2.29e5
- control promoter light, run 1, well b: 2.76e5
- uninduced reporter light, run 1, well a: 13610

Met (Methoprene-tolerant) [DRSC20284]
- induced reporter light, run 1, well a: 1.17e5
- induced reporter light, run 1, well b: 1.10e5
- control promoter light, run 1, well a: 1.80e5
- control promoter light, run 1, well b: 1.78e5
- uninduced reporter light, run 1, well a: 8405

CG13560 [DRSC04198]
- induced reporter light, run 1, well a: 1.85e5
- induced reporter light, run 1, well b: 1.57e5
- control promoter light, run 1, well a: 1.88e5
- control promoter light, run 1, well b: 1.89e5
- uninduced reporter light, run 1, well a: 12990

Targets above whose gene name begins with P or p:
Ppt2 (Palmitoyl-protein Thioesterase 2) [DRSC02786]
- induced reporter light, run 1, well a: 2.06e5
- induced reporter light, run 1, well b: 2.36e5
- control promoter light, run 1, well a: 1.94e5
- control promoter light, run 1, well b: 2.15e5
- uninduced reporter light, run 1, well a: 15842

Pur-alpha (Purine-rich binding protein-alpha) [DRSC17166]
- induced reporter light, run 1, well a: 1.68e5
- induced reporter light, run 1, well b: 1.64e5
- control promoter light, run 1, well a: 2.29e5
- control promoter light, run 1, well b: 2.76e5
- uninduced reporter light, run 1, well a: 13610
